Results: publication PMC6281615
No constants are given. Whether binding was seen depends on the method and setting. In cells and extracts the contact can be indirect. Some results given as binding are weak or reduced against the parent protein; the word gives no strength. For some assays here: Tags and fused reporters may be left off the sequences shown. Each block holds one molecule with its values, some of them ahead of it.

The chains behind the UniProt entries cited, without tags or fusion partners.
UniProt Q96GD4: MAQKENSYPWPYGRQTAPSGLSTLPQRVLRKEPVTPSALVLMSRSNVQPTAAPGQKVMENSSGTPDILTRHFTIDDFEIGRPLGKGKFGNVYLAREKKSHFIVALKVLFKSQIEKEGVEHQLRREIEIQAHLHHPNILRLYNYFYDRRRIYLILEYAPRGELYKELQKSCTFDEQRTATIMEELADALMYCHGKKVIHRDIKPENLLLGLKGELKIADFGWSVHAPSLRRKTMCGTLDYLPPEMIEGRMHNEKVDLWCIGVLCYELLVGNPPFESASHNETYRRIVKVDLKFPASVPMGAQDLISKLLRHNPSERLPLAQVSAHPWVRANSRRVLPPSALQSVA
UniProt O70126: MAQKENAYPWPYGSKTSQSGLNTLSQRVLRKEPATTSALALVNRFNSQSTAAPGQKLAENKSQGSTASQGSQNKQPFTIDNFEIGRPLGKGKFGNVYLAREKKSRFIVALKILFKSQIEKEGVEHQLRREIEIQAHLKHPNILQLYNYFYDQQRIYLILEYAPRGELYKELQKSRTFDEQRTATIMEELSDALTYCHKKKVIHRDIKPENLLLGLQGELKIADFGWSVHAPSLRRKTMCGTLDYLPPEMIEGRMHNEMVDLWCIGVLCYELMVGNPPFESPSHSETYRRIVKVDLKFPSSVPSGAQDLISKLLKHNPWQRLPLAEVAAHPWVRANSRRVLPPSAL

Tests used:
[1] = target: T1, Endogenous CREPT (MGC803 cells) (human (endogenous in MGC803)) (UniProt Q9NQG5); experiment: co-IP; endogenous proteins; IP with an anti-CREPT antibody in MGC803 cells and mouse embryonic stem cells
T1 sequence: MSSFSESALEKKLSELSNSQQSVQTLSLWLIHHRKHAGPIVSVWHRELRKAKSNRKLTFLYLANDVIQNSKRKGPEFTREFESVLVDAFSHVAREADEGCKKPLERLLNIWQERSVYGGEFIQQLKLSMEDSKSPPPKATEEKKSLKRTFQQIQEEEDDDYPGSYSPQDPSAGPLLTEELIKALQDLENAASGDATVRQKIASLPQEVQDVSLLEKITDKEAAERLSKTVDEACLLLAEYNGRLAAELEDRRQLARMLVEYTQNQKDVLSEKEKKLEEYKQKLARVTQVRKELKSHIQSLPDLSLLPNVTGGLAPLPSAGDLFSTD

[2] = target: T2, Endogenous CREPT (cell line not stated) (UniProt Q9NQG5); experiment: co-IP; endogenous proteins; cells synchronized by double thymidine block and released; IP with anti-CREPT antibody at different phases of the cell cycle (phases other than S)
T2 sequence: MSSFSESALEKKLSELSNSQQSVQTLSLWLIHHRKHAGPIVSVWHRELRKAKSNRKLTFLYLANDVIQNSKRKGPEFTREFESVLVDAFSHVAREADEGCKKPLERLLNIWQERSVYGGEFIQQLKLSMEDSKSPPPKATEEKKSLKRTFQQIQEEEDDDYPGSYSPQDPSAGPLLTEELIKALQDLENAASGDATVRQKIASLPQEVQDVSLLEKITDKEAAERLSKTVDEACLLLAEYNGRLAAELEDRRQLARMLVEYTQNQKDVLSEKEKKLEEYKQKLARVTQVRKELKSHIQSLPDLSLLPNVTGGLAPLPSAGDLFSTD

[3] = target: T2, Endogenous CREPT (cell line not stated); experiment: condition: only cells in S phase after release from double thymidine block; co-IP; endogenous proteins; cells synchronized by double thymidine block and released; IP with anti-CREPT antibody; cells in S phase
[4] = target: T3, Endogenous CREPT (mouse embryonic stem cells) (mouse (endogenous in mES cells)) (UniProt Q9CSU0); experiment: co-IP; endogenous proteins; IP with an anti-CREPT antibody in MGC803 cells and mouse embryonic stem cells
T3 sequence: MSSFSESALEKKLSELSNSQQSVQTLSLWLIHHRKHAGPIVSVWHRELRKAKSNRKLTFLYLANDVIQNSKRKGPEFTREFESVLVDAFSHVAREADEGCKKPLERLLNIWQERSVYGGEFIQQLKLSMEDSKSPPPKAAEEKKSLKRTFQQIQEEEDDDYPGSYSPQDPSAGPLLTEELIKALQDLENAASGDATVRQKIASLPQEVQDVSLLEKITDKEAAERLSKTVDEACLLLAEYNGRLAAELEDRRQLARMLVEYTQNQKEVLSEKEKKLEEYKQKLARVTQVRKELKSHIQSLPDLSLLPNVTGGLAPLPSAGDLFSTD

GST-CREPT = target: T4, GST-CREPT (UniProt Q9NQG5); experiment: pull-down; GST pull-down with purified GST and GST-CREPT; HA-Aurora B overexpressed in HEK293T cells; only the target purified
T4 sequence: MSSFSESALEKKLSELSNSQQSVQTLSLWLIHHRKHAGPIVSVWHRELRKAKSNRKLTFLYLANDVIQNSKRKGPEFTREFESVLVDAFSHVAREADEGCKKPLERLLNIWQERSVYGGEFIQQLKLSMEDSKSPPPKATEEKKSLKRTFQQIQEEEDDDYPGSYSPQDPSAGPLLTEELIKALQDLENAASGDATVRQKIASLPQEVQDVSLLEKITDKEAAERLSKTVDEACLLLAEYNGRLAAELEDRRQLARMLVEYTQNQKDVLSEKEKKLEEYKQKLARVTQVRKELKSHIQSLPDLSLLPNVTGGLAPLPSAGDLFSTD

Flag-CREPT = target: T5, Flag-CREPT (UniProt Q9NQG5); experiment: co-IP; tagged CREPT (Flag or Myc) and HA-Aurora B co-expressed in HEK293T cells; IP with an antibody against the tag of one partner, western blot for the tag of the other
T5 sequence: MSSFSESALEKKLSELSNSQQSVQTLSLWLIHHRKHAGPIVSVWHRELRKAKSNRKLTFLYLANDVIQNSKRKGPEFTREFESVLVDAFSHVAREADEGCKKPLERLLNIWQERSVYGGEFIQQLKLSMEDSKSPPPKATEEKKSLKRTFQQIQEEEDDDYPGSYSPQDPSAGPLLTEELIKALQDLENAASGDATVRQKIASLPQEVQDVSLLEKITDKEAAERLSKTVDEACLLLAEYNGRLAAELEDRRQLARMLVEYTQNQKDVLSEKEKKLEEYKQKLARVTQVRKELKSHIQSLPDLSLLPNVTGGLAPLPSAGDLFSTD

[5] = target: T6, Myc-tagged full length CREPT (UniProt Q9NQG5); experiment: as above
T6 sequence: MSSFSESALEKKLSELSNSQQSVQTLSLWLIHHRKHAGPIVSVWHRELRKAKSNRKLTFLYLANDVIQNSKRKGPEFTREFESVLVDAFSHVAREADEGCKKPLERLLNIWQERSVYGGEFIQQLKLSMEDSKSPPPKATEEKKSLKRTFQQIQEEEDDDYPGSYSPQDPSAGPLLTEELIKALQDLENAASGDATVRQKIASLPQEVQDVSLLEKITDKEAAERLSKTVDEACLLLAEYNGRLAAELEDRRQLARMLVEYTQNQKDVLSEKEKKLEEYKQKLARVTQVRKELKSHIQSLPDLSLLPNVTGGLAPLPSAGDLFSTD

HA-Aurora B = HA-Aurora B (UniProt Q96GD4); experiment: as above

Molecule: Endogenous Aurora B (MGC803 cells) (from UniProt Q96GD4 1-344) (enzyme)
binding [1]: binds

Molecule: Endogenous Aurora B (mouse embryonic stem cells) (from UniProt O70126 1-345) (enzyme)
binding [4]: binds

Molecule: HA-Aurora B (from UniProt Q96GD4 1-344) (enzyme)
binding (GST-CREPT): binds
binding (Flag-CREPT): binds
binding [5]: binds

Other lines, results leading:

binding [2]: binds
binding [3]: no binding
Molecule: Endogenous Aurora B (cell line not stated) (from UniProt Q96GD4 1-344) (enzyme)

binding (HA-Aurora B): binds
B1: Flag-CREPT (protein, UniProt Q9NQG5 1-326)
chain: MSSFSESALEKKLSELSNSQQSVQTLSLWLIHHRKHAGPIVSVWHRELRKAKSNRKLTFLYLANDVIQNSKRKGPEFTREFESVLVDAFSHVAREADEGCKKPLERLLNIWQERSVYGGEFIQQLKLSMEDSKSPPPKATEEKKSLKRTFQQIQEEEDDDYPGSYSPQDPSAGPLLTEELIKALQDLENAASGDATVRQKIASLPQEVQDVSLLEKITDKEAAERLSKTVDEACLLLAEYNGRLAAELEDRRQLARMLVEYTQNQKDVLSEKEKKLEEYKQKLARVTQVRKELKSHIQSLPDLSLLPNVTGGLAPLPSAGDLFSTD
